The other results are listed elsewhere or left out. The main result of the screen is listed elsewhere. These columns were measured beside it and carry no call. The list favours compounds with an active or inconclusive main result. Potencies come from curve fits of mixed quality, noted in brackets.
Experiment: qHTS Assay for Lipid Storage Modulators in Drosophila S3 Cells;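 as to cell number change: cells counted by Cell Tracker Red CMTPX staining in the red channel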
Conditions: BODIPY lipid droplet fluorescence, 18-24 h; for cell number change: measured here: cell count max response, cells fed with added oleic acid
Outline: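 Laser-scanning cytometry quantifies lipid droplet accumulation (500–530 nm total intensity; droplet/cell object ratio) in oleic acid-fed (400 uM added) Drosophila S3 cells treated with a concentration series. 20 uM Triacsin C defined 100% inhibition.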

[1] = measured here: lipid fluorescence (Fed channel) AC50, cells fed with added oleic acid
[2] = measured here: cell number channel AC50, cells fed with added oleic acid

SMILES | AC50 [1] | cell number change | AC50 [2]
COCc1cc(N2CCOCC2)nc(SCc2ccc(Cl)cc2)n1 | 0.058 µM [falling, full curve, poor fit] | – | –
CC1CC(C)CN(C(=O)COC(=O)c2cc(S(=O)(=O)N3CCOCC3)ccc2F)C1 (configuration not stated) | – | 100% | 14.6 µM [rising, partial curve]
CC1CCN(S(=O)(=O)c2cccc(C(=O)N3CCN(c4ccc(F)cc4)CC3)c2)CC1 | 29.1 µM [falling, single point] | -20.8% | –
Cc1nc(C)c(C(=O)NNS(=O)(=O)c2ccc3ccccc3c2)s1 | 25.9 µM [falling, partial curve] | -25.7% | 5.17 µM [rising, single point]
O=C(NCCCn1ccnc1)C(F)(F)C(F)(F)C(=O)NCCCn1ccnc1 | – | -18.4% | –
CC(=O)Nc1cccc(NC(=O)CSc2nc(=O)n(CCN3CCOCC3)c3c2CCC3)c1 | 16.4 µM [rising, single point] | – | 2.31 µM [rising, partial curve]
COc1ccc(N2CCOCC2)c(NC(=O)c2cccs2)c1 | 14.6 µM [falling, single point] | -11.9% | –
COc1ccc(N2CCCn3c2nc2c3c(=O)n(Cc3ccc(C)cc3)c(=O)n2C)c(OC)c1 | 2.06 µM [falling, partial curve, poor fit] | -21% | –
Cc1ccc2nc(SCC(=O)Nc3ccc(F)cc3F)nc(=O)n2c1 | 0.058 µM [falling, full curve, poor fit] | 0.659% | –
CCOC(=O)c1cc(-c2ccccc2)n(CCC(=O)N2CCN(c3ccccc3OC)CC2)c1C | 2.59 µM [rising, partial curve] | 17.3% | 3.66 µM [rising, partial curve]
CCC(C(=O)NCc1ccc(C)o1)n1nc(C)c2c(C)n(-c3ccccc3)nc2c1=O (configuration not stated) | 29.1 µM [falling, single point] | -13.6% | –
CCCC(=O)Oc1ccc(C2NC(=O)c3ccccc3O2)cc1OC (configuration not stated) | 0.517 µM [rising, single point] | 21.2% | 0.461 µM [rising, full curve, poor fit]
CC(=O)Nc1ccccc1NC(=O)C/C(C)=N/NC(=O)C(=O)N1CCCCC1 | 6.51 µM [falling, single point] | -8.57% | –
COc1ccc(C(=O)N2CCC(N3CCN(c4ccccc4)CC3)CC2)cc1OC | 18.4 µM [falling, partial curve] | 17.5% | –
O=C1c2cccc(OCC(=O)N3CCCc4ccccc43)c2CCN1Cc1ccccc1 | 0.82 µM [rising, single point] | 4.81% | –
Cc1ccc(C)c(N2N=C(C(=O)N(CC(C)C)c3c(N)n(Cc4ccccc4)c(=O)[nH]c3=O)CCC2=O)c1 | – | 10.8% | –
CC(C)c1ccc(/C=N/NC(=O)C2CCCC2)cc1 | 29.1 µM [falling, single point] | – | –
CCC(=Nc1ccc(N)cc1)C1=C(O)C(C(=O)OC)C(C)(C)CC1=O (configuration not stated) | 0.082 µM [rising, full curve, poor fit] | 0.559% | –
CC(=O)Nc1ccc(S(=O)(=O)N2CCN(C(=O)c3ncoc3-c3ccccc3F)CC2)cc1 | – | 5% | –
CCC1CO/C(=C(\C(Cl)=C(Cl)Cl)[N+](=O)[O-])N1 (configuration not stated) | 29.1 µM [rising, single point] | 37.9% | 29.1 µM [rising, single point]
O=C(NCC1CCCO1)C1CCN(S(=O)(=O)c2ccc(Br)cc2)CC1 (configuration not stated) | 1.64 µM [falling, partial curve] | -0.293% | –
O=S(=O)(c1cc(Cl)ccc1Cl)n1ccnc1 | 0.731 µM [falling, full curve] | -58.8% | 25.9 µM [falling, partial curve, poor fit]
CSc1ccc(CNCC2CCCO2)cc1 (configuration not stated) | – | 0.365% | –
O=C(N/N=C/c1cccc([N+](=O)[O-])c1)c1cc(-c2ccc3c(c2)OCO3)n[nH]1 | 0.58 µM [falling, single point] | -17% | –
CCC(CCC(=O)Nc1ccc(S(N)(=O)=O)cc1)C(=O)O (configuration not stated) | 1.64 µM [falling, full curve] | -12.5% | –
COc1cc(/C=N/NC(=O)COc2ccccc2[N+](=O)[O-])ccc1OC(=O)c1ccco1 | – | 29.6% | –
Cc1cc(-c2ccco2)n(-c2ccccc2)n1 | 0.731 µM [falling, single point] | -12.3% | –
CC(C(=O)Nc1ccc(F)c(F)c1F)N(C)CCOc1ccccc1 (configuration not stated) | 8.2 µM [rising, partial curve] | -1.73% | –
CS(=O)(=O)c1ccc(N2CCN(c3ccccn3)CC2)c([N+](=O)[O-])c1 | – | 12.5% | –
Cc1ccc(NC(=O)COC(=O)CCC(=O)c2cccs2)cc1C | 23.1 µM [falling, partial curve] | -7% | –

2 entries from above, reformatted.
Cc1nc(C)c(C(=O)NNS(=O)(=O)c2ccc3ccccc3c2)s1
  AC50 [1]: 25.9 µM [falling, partial curve]
  cell number change: -25.7%
  AC50 [2]: 5.17 µM [rising, single point]
Cc1cc(-c2ccco2)n(-c2ccccc2)n1
  AC50 [1]: 0.731 µM [falling, single point]
  cell number change: -12.3%
